The list does not hold the whole screen: it gathers tests that were run many times, whatever their T/C, doses with no T/C, and many T/C values between a quarter and a half above the control. Other doses and runs of a compound stand elsewhere. T/C gives the treated animals as a percentage of the vehicle group. Schedules are NCI's codes, read here as Q, the interval in days (D) or hours (H), X, the number of doses. Some T/C values carry the count of animals alive at the toxicity check (mostly the fifth day); without a count, all were alive then. Some entries give survivors of the animals treated and no T/C: the source holds a T/C of zero for them, seemingly a mark for toxic or unscored doses. Survivors were counted at the toxicity check, usually on the fifth day, unless a day is given; later deaths do not show. Some entries were tested several times; their values stand side by side, smallest first.

Experimental findings from PubChem BioAssay AID220 (DTP/NCI, 2004) are described below.

The subject of this assay is CD8F1 mice, subcutaneous mammary adenocarcinoma, T/C%. Kind of assay: NCI In Vivo Anticancer Drug Screen. Data for tumor model Mammary Adenocarcinoma CD8F1 (subcutaneous) in CD8F1. Particulars: higher T/C = larger tumour. In outline: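 Tumor-bearing mice, transplantable model; readout survival or tumor size; value = treated (T) / vehicle control (C).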
Where [1] appears, read: T/C endpoint: median tumor weight change, dose: 500.0 mg/kg/injection, schedule: Q01DX001 (ip), vehicle: saline with Tween-80.
Setting [2] is: T/C endpoint: median tumor weight change, dose: 1000.0 mg/kg/injection, schedule: Q01DX001 (ip), vehicle: saline with Tween-80.
Setting [3] is: T/C endpoint: median tumor weight change, dose: 250.0 mg/kg/injection, schedule: Q01DX001 (ip), vehicle: saline with Tween-80.
The mark [4] stands for this setting: T/C endpoint: median tumor weight change, dose: 2000.0 mg/kg/injection, schedule: Q01DX001 (ip), vehicle: saline with Tween-80.

As for `COC1CC(C)C(OC)C2=CC(=O)C=C(NC(=O)/C(C)=C/C=C\C(C)C(OC(N)=O)/C(C)=C\C(C)C1OC)C2=O` (configuration not stated), the survivor count was 3 of 10 on day 35 (T/C endpoint: median tumor weight change, dose: 50.0 mg/kg/injection, schedule: Q01DX001 (ip), vehicle: saline + alcohol) and 2 of 10 on day 35 (T/C endpoint: median tumor weight change, dose: 100.0 mg/kg/injection, schedule: Q01DX001 (ip), vehicle: saline + alcohol).

Regarding `O=Cc1c(O)c2ccccc2[nH]c1=O`, the survivor count was 6 of 10 on day 36 under setting [1]; 0 of 10 on day 30 and 1 of 10 on day 36 under setting [2].

`COC1C(/C=C/C(C)=O)OC2OC(C)(C)OC21` (configuration not stated): the survivor count (T/C endpoint: median tumor weight (est.), dose: 400.0 mg/kg/injection, schedule: Q07DX005 (ip), vehicle: Klucel (hydroxypropylcellulose) (HPC)) was 2 of 10 on day 30.

For the molecule `CC(=O)CC(C)=O.CC(=O)CC(C)=O.O=N[O-].O=N[O-].[Co]`, the survivor count is, setting by setting: under setting [3], 0 of 10 on day 43; under setting [1], 0 of 10 on day 43; under setting [2], 0 of 10 on day 43.

With `Cc1cn(C2CC(O)C(CO)O2)c(=O)[nH]c1=O` (configuration not stated), the T/C reads like this: (T/C endpoint: median tumor weight (est.), dose: 100.0 mg/kg/injection, schedule: Q07DX005 (ip), vehicle: saline, evaluated on day 30) 137 % of control [9 of 10 alive]; (T/C endpoint: median tumor weight (est.), dose: 200.0 mg/kg/injection, schedule: Q07DX005 (ip), vehicle: saline, evaluated on day 30) 127 % of control [9 of 10 alive]; (T/C endpoint: median tumor weight (est.), dose: 400.0 mg/kg/injection, schedule: Q07DX005 (ip), vehicle: saline, evaluated on day 30) 131 % of control.

For the molecule `COc1ccc(OC)c(Cc2cnc3nc(N)nc(N)c3c2C)c1`, the survivor count is, setting by setting: (T/C endpoint: median tumor weight change, dose: 125.0 mg/kg/injection, schedule: Q01DX001 (ip), vehicle: other) 6 of 10 on day 40; (T/C endpoint: median tumor weight change, dose: 250.0 mg/kg/injection, schedule: Q01DX001 (ip), vehicle: other) 5 of 10 on day 40; (T/C endpoint: median tumor weight change, dose: 500.0 mg/kg/injection, schedule: Q01DX001 (ip), vehicle: other) 0 of 10 on day 40.

Consider `NC1(C(=O)O)CCCC1`, for which the T/C was 135 % of control (T/C endpoint: mean tumor weight, dose: 12.5 mg/kg/injection, schedule: Q07DX008 (ip), vehicle: saline, evaluated on day 51) and 139 % of control (T/C endpoint: median tumor weight (est.), dose: 12.5 mg/kg/injection, schedule: Q07DX005 (ip), vehicle: saline, evaluated on day 30).

`CCCN1COC(OCC)C(C)(C)C1` (configuration not stated): the survivor count (T/C endpoint: median tumor weight change, dose: 400.0 mg/kg/injection, schedule: Q01DX001 (ip), vehicle: saline with Tween-80) was 2 of 10 on day 28; the survivor count (T/C endpoint: median tumor weight change, dose: 800.0 mg/kg/injection, schedule: Q01DX001 (ip), vehicle: saline with Tween-80) is reported as 0 of 10 on day 28; the survivor count under setting [2] is 0 of 10 on day 26.

On to `CC1CN1P1(N2CC2C)=NP(N2CC2C)(N2CC2C)=NP(N2CC2C)(N2CC2C)=N1` (configuration not stated), for which the T/C (T/C endpoint: mean tumor weight, dose: 12.5 mg/kg/injection, schedule: Q07DX005 (ip), vehicle: saline, evaluated on day 37) was 143 % of control. Besides, the survivor count (T/C endpoint: mean tumor weight, dose: 200.0 mg/kg/injection, schedule: Q07DX005 (ip), vehicle: saline) is 1 of 6.

In the case of `O=C1N=C(Oc2ccccc2)SC1=O`, the survivor count is reported as 1 of 10 on day 27 (T/C endpoint: median tumor weight change, dose: 125.0 mg/kg/injection, schedule: Q01DX001 (ip), vehicle: saline with Tween-80); 2 of 10 on day 31 (T/C endpoint: median tumor weight change, dose: 250.0 mg/kg/injection, schedule: Q01DX001 (ip), vehicle: DMSO); 4 of 10 on day 27 under setting [3]; 0 of 10 on day 31 (T/C endpoint: median tumor weight change, dose: 500.0 mg/kg/injection, schedule: Q01DX001 (ip), vehicle: DMSO); 0 of 10 on day 27 under setting [1]; 0 of 10 on day 31 (T/C endpoint: median tumor weight change, dose: 1000.0 mg/kg/injection, schedule: Q01DX001 (ip), vehicle: DMSO). The survivor count is, setting by setting: under setting [2], 0 of 10 on day 27; (T/C endpoint: median tumor weight change, dose: 2000.0 mg/kg/injection, schedule: Q01DX001 (ip), vehicle: DMSO) 0 of 10 on day 31; under setting [4], 0 of 10 on day 27.

For `OCC1OC(n2cnc3cncnc32)C(O)C1O` (configuration not stated), the survivor count by setting is: (T/C endpoint: median tumor weight (est.), dose: 25.0 mg/kg/injection, schedule: Q07DX005 (ip), vehicle: saline) 6 of 10 on day 30; (T/C endpoint: median tumor weight (est.), dose: 50.0 mg/kg/injection, schedule: Q07DX005 (ip), vehicle: saline) 3 of 10 on day 30; (T/C endpoint: median tumor weight (est.), dose: 100.0 mg/kg/injection, schedule: Q07DX005 (ip), vehicle: saline) 0 of 10 on day 30.

Consider `C/C=C1\C[C@@H]2C(OC)Nc3cc(O)c(OC)cc3C(=O)N2C1` (some centres not stated), for which the survivor count reads like this: (T/C endpoint: median tumor weight change, dose: 2.5 mg/kg/injection, schedule: Q01DX001 (ip), vehicle: suspension in saline) 1 of 10 on day 31; (T/C endpoint: median tumor weight change, dose: 5.0 mg/kg/injection, schedule: Q01DX001 (ip), vehicle: suspension in saline) 0 of 10 on day 31.

Turning to `CC1=CC2c3cccc4[nH]cc(c34)CC2N(C)C1` (configuration not stated), the T/C by setting is: (T/C endpoint: median tumor weight change, dose: 12.5 mg/kg/injection, schedule: Q01DX001 (ip), vehicle: suspension in saline, evaluated on day 31) 125 % of control [9 of 10 alive on day 31]; (T/C endpoint: median tumor weight change, dose: 50.0 mg/kg/injection, schedule: Q01DX001 (ip), vehicle: suspension in saline, evaluated on day 31) 128 % of control. Further, the survivor count is 5 of 10 on day 31 (T/C endpoint: median tumor weight change, dose: 100.0 mg/kg/injection, schedule: Q01DX001 (ip), vehicle: suspension in saline) and 4 of 10 on day 31 (T/C endpoint: median tumor weight change, dose: 200.0 mg/kg/injection, schedule: Q01DX001 (ip), vehicle: suspension in saline).

Regarding `Cc1oc2c(C)c3oc(=O)cc(C)c3cc2c1CCl`, the T/C is, setting by setting: (T/C endpoint: median tumor weight change, dose: 125.0 mg/kg/injection, schedule: Q01DX001 (ip), vehicle: saline with Tween-80, evaluated on day 25) 11 % of control; (T/C endpoint: median tumor weight change, dose: 125.0 mg/kg/injection, schedule: Q01DX001 (ip), vehicle: saline with Tween-80, evaluated on day 29) 117 % of control; (T/C endpoint: median tumor weight change, dose: 125.0 mg/kg/injection, schedule: Q01DX001 (ip), vehicle: saline with Tween-80, evaluated on day 32) 64 % of control; (T/C endpoint: median tumor weight change, dose: 125.0 mg/kg/injection, schedule: Q01DX001 (ip), vehicle: saline with Tween-80, evaluated on day 40) 49 % of control; (T/C endpoint: median tumor weight change, dose: 250.0 mg/kg/injection, schedule: Q01DX001 (ip), vehicle: saline with Tween-80, evaluated on day 25) 21 % of control [9 of 10 alive on day 25]; (T/C endpoint: median tumor weight change, dose: 250.0 mg/kg/injection, schedule: Q01DX001 (ip), vehicle: saline with Tween-80, evaluated on day 29) 137 % of control. Also, the T/C (T/C endpoint: median tumor weight change, dose: 250.0 mg/kg/injection, schedule: Q01DX001 (ip), vehicle: saline with Tween-80, evaluated on day 32) was 60 % of control. Moreover, the survivor count was 3 of 10 on day 40 under setting [3]; 0 of 10 on day 32 and 2 of 10 on day 25 under setting [2]; 0 of 10 on day 25, 0 of 10 on day 29, 0 of 10 on day 32 under setting [4].

On to `CC1OC1C(=O)C1(O)C(C)C(O)C23OC2(C(O)c2c(O)cccc2C3=O)C1O` (configuration not stated), for which, for the setting “T/C endpoint: median tumor weight change, dose: 5.0 mg/kg/injection, schedule: Q01DX001 (ip), vehicle: Klucel (hydroxypropylcellulose) (HPC), evaluated on day 26”, the T/C is 125 % of control. Further, the survivor count (T/C endpoint: median tumor weight change, dose: 80.0 mg/kg/injection, schedule: Q01DX001 (ip), vehicle: Klucel (hydroxypropylcellulose) (HPC)) is on record as 0 of 10 on day 26, 6 of 10 on day 26, 6 of 10 on day 33.

`CCCCCC(O)C1C(=O)OC(C)C(O)/C=C/C=C/C=C/C=C\C=C(\C)C(O)CC(O)CC(O)CC(O)CC(O)CC(O)CC1O` (configuration not stated): the T/C (T/C endpoint: median tumor weight change, dose: 31.25 mg/kg/injection, schedule: Q01DX001 (ip), vehicle: distilled water + Tween-80, evaluated on day 35) was 137 % of control. The survivor count reads like this: (T/C endpoint: median tumor weight change, dose: 125.0 mg/kg/injection, schedule: Q01DX001 (ip), vehicle: distilled water + Tween-80) 4 of 10 on day 35; (T/C endpoint: median tumor weight change, dose: 250.0 mg/kg/injection, schedule: Q01DX001 (ip), vehicle: distilled water + Tween-80) 0 of 10 on day 35; (T/C endpoint: median tumor weight change, dose: 500.0 mg/kg/injection, schedule: Q01DX001 (ip), vehicle: distilled water + Tween-80) 0 of 10 on day 35.

Take `CC(O)CCC(=O)c1ccoc1` (configuration not stated): the survivor count is 5 of 10 on day 25 (T/C endpoint: median tumor weight change, dose: 13.3 mg/kg/injection, schedule: Q03HX003 (ip), vehicle: saline) and 0 of 10 on day 25 (T/C endpoint: median tumor weight change, dose: 26.6 mg/kg/injection, schedule: Q03HX003 (ip), vehicle: saline).
